# Measurements reported in PubChem BioAssay AID651664 (NMMLSC, 2012).
# Fewer than 10 of roughly 1,800 compounds were called active.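 Rule for the calls: active = inhibition of granule release above a set limit; inactive = the rest.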 This is one part of the list.
# Experiment: LAMP-1 surface externalization blockers in TALL-104 cells – cell-based, flow cytometry, validation set (AID 651664)
# Details: TALL-104 LAMP-1 externalization, at 15.2 µM, hits give high values, stimulated with thapsigargin and PMA
row,Compound,inhibition
1,O=C1CC(c2ccco2)CC(O)=C1C=NCCN1CCN(C2CC(=O)N(c3ccccc3)C2=O)CC1 (configuration not stated),inactive: -2.2%
2,O=C(CCn1cccc1)NC1CCCc2ccccc21 (configuration not stated),inactive: 1.9%
3,COc1ccc(-c2nc(NC(=O)Cn3ccc(C(F)(F)F)n3)sc2C)cc1,inactive: 1.8%
4,Cc1cc(C)c(S(=O)(=O)NCc2cn3c(C)csc3n2)c(C)c1,inactive: -4.5%
5,CCn1c(C)nc2c1C(=O)c1ccccc1C2=O,inactive: -1.5%
6,O=C(O)CN(Cc1ccco1)S(=O)(=O)c1ccccc1,inactive: -2.6%
7,Cc1cc(=O)[nH]c(-n2nc(C)cc2C)n1,inactive: -3.8%
8,CSc1nc(Oc2ccccc2)c2sccc2n1,inactive: -0.5%
9,COc1cccc(C(=O)Nc2nnc(-c3cccs3)s2)c1,inactive: -0.6%
10,COc1cc(C2C(C(C)=O)=C(O)C(=O)N2CCN(C)C)ccc1O (configuration not stated),inactive: -3.3%
11,COc1ccc(N/N=C(/N=Nc2nc(C)cc(=O)[nH]2)c2ccccc2)cc1,inactive: 3.7%
12,COc1cc2c(C(=O)N3CCN(c4ccccc4C)CC3)c(C)oc2cc1Br,inactive: 2.5%
13,Cc1cc(/C=N/NC(=O)c2cccc([N+](=O)[O-])c2)c(C)n1-c1ccc(Cl)cc1Cl,inactive: -5.4%
14,O=C(Nc1ccc2oc(-c3cccnc3)nc2c1)c1ccco1,inactive: 2%
15,CCC(c1nnnn1CCOC)N(Cc1ccc(C)cc1)Cc1cc2cc(OC)ccc2[nH]c1=O (configuration not stated),inactive: -1.1%
16,Cc1ccc(NC(=O)CN2C(=O)N/C(=C/c3ccco3)C2=O)cc1,inactive: 1.7%
17,COC(=O)c1cc(OC)c(OCc2cc(C(=O)OC)oc2C)c(OC)c1,inactive: 2.7%
18,OCCSc1nncn1/N=C/c1c[nH]c2ccccc12,inactive: -3.4%
19,CC(=O)N1CCN(S(=O)(=O)c2cccc(C(=O)NC3CCCc4ccccc43)c2)CC1 (configuration not stated),inactive: 0%
20,CC(CN1CCCCC1)OC(=O)c1ccc(Cl)cc1Cl (configuration not stated),inactive: -2.5%
21,Cc1cc(-c2csc(N)n2)c(C)n1CCC(C)C,inactive: -0.5%

# Of the compounds above, these have a thiophene ring, fused or not.
row,Compound,inhibition
8,CSc1nc(Oc2ccccc2)c2sccc2n1,inactive: -0.5%
9,COc1cccc(C(=O)Nc2nnc(-c3cccs3)s2)c1,inactive: -0.6%

# (list continues)

row,Compound,inhibition
1,O=c1oc(-c2ccccc2NS(=O)(=O)c2ccccc2)nc2ccccc12,inactive: 0.1%
2,CC1=C(C(=O)OC(C)C)C(c2ccco2)NC(=O)N1 (configuration not stated),inactive: -1.9%
3,Cc1ccc(C2c3sc(=O)[nH]c3SC3C(=O)NC(=O)C32)cc1 (configuration not stated),inactive: 0.7%
4,Nc1cc2ccccc2oc1=O,inactive: 4.2%
5,CCNC(=O)NC(=O)C(C)Sc1nc2ccccc2n1CC(C)C (configuration not stated),inactive: 0.8%
6,CN(C)/C=C1\N=C(c2cccs2)OC1=O,inactive: -1.9%
7,CCOC(=O)C(CC)Sc1nc2c(c(=O)[nH]c(=O)n2C)n1CCc1ccccc1 (configuration not stated),inactive: -2.9%
8,CC1(C)CC(=O)C2=C(C1)OC(/N=C/N1CCOCC1)=C(C#N)C2c1ccccc1 (configuration not stated),inactive: -0.6%
9,N#CC1=C(S)N=C(N)C(c2nc(-c3ccccc3)cs2)C12CCCCC2 (configuration not stated),inactive: -0.1%
10,O=C(Nc1nc(-c2cccc([N+](=O)[O-])c2)cs1)C(c1ccccc1)c1ccccc1,inactive: -0.3%
11,Cc1ccccc1-n1c(SCc2c(C)noc2C)nnc1-c1cccnc1,inactive: 0.4%
12,Cc1ccc(NCc2cccnc2)cc1,inactive: 3.2%
13,CCN1C(=O)/C(=C\N2CCN(c3ccccc3)CC2)SC1=S,inactive: 2.5%
14,COC(=O)Cc1c(C)c2ccc(O)c(CN3CCCC(C)C3)c2oc1=O (configuration not stated),inactive: -1.8%
15,C=C(Br)Cn1c(CCCC)nc2ccccc21,inactive: 6.1%
16,Cc1cc(CN(C)C)c(O)c(C2(C)CCCCC2)c1,inactive: 1%
17,Cc1ccc(SC(C)C(=O)NCc2cccnc2)cc1 (configuration not stated),inactive: 23%
18,CCOc1ccc(Br)cc1C1C(C(=O)OC)=C(N)Oc2cc(N(C)C)ccc21 (configuration not stated),inactive: 4.1%
19,CCCc1nnc(NC(=O)c2cc3ccccc3oc2=O)s1,inactive: 0.8%
20,Cc1ccc(CNC(=O)CCNC(=O)c2ccco2)cc1,inactive: -3.1%
21,COc1cc(NC(=O)Nc2ccccc2)c(OC)cc1NC(=O)CN1CCCCC1,inactive: -0.7%

# In a second layout: 2 of the compounds above
row	Compound	inhibition
11	Cc1ccccc1-n1c(SCc2c(C)noc2C)nnc1-c1cccnc1	inactive: 0.4%
17	Cc1ccc(SC(C)C(=O)NCc2cccnc2)cc1 (configuration not stated)	inactive: 23%

# (continued)

row,Compound,inhibition
1,CCOC(=O)C1(P(=O)(c2ccc(Cl)cc2)c2ccc(Cl)cc2)CCC1,inactive: -0.1%
2,CC(C(=O)NCc1cccs1)n1cccc1 (configuration not stated),inactive: -0.5%
3,CN(C)c1ncnc2c1NC1=C(S2)C(=NCCCC(=O)O)CC(C)(C)C1,inactive: 0.8%
4,CCOc1ccc(-c2nc(CSCC(=O)NCc3ccco3)c(C)o2)cc1,inactive: 1.6%
5,Cc1ccc2cc(COC(=O)C3CCCO3)c(=O)[nH]c2c1 (configuration not stated),inactive: -2.9%
6,CNC(=O)c1sccc1S(=O)(=O)Cc1c(Cl)cccc1Cl,inactive: -1%
7,CCOc1ccc(CNc2ccc(N3CCOCC3)c(C(=O)O)c2)cc1,inactive: 1.2%
8,Cc1ccc(NC(=O)c2cc(S(=O)(=O)Nc3ccc(C)cc3)cs2)cc1,inactive: 0.6%
9,CC1(C)CC(=O)c2cc(C(=O)NCc3ccco3)c(=O)n(-c3ccccc3)c2C1,inactive: 3.8%
10,COCCN(C(=O)CN1CCCc2ccccc21)c1c(N)n(Cc2ccccc2)c(=O)[nH]c1=O,inactive: 6.7%
11,COc1cc(OC)c(NC(=S)Nc2cccc(C(C)=O)c2)cc1Cl,inactive: -3.9%
12,CCn1c2ccccc2c2cc(NC(=O)CSc3nnnn3-c3ccccc3)ccc21,inactive: 4.2%
13,C/C=C/c1ccc(OCCCNCC(C)O)c(OC)c1 (configuration not stated),inactive: -1.2%
14,Cc1cc(COc2ccccc2OCCN2CCN(C)CC2)no1,inactive: -0.2%
15,O=C(Nc1cccc(-c2cnc3ccccc3n2)c1)c1ccco1,inactive: -1.5%
16,CN(Cc1nc(-c2cccnc2)no1)S(=O)(=O)c1ccc(Br)cc1,inactive: 6.2%
17,CN1CC(=O)NC1=NC(=O)c1ccc(Cl)c(S(=O)(=O)N2CCCCCC2)c1,inactive: -1.1%
18,Cc1c(C(=O)N2CCCCC2)nnn1-c1nonc1N,inactive: -0.7%
19,CC1CC(C)CN(CC(=O)N2CCCc3c2c(=O)oc2ccc(OCc4ccccc4)cc32)C1 (configuration not stated),inactive: -3%
20,COc1ccccc1Cn1nnc2c(=O)[nH]c(C3CCN(C(=O)c4ccc(F)cc4)CC3)nc21,inactive: -0.3%
